Some of the results follow. Residues, ends and D or L forms follow the SMILES beside them. *: point of attachment. Cbz = O=C(OCc1ccccc1)*
Legend:
Experiment in all cases: log2 fold change, soluble protein after heating vs DMSO (PISA); higher = thermal stabilisation; K562 cells, 10 uM, 30 min; active = over 0.2 and 3.5 SD of the protein, either way, in both replicates (recomputed)
[1] = compound: C1COCCN1CCN2C3=CC=CC=C3N=C2NC(=O)C4=CC(=CC=C4)[N+](=O)[O-] [IRAK-1-4 Inhibitor I]
Method in brief: (§1)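 K562 cells (2×10^6 cells/mL) were treated with 10 μM compound for 30 min, and aliquots were heated for 3 min over 48°C-58°C. Pooled aliquots were extracted in PBS with 0.5% NP-40 at 4°C, and the supernatant after 21,000xg for 90 min was measured by TMTpro 16plex LC-MS/MS with channel sums equalised. Reported thermal stability, relative to control samples and from duplicates, is a log2 fold change.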

Chains of the proteins cited; added tags and fusions are not shown. Lines headed by an entry give the natural chain unless they say otherwise; changes in a name come on top.
UniProt P23368: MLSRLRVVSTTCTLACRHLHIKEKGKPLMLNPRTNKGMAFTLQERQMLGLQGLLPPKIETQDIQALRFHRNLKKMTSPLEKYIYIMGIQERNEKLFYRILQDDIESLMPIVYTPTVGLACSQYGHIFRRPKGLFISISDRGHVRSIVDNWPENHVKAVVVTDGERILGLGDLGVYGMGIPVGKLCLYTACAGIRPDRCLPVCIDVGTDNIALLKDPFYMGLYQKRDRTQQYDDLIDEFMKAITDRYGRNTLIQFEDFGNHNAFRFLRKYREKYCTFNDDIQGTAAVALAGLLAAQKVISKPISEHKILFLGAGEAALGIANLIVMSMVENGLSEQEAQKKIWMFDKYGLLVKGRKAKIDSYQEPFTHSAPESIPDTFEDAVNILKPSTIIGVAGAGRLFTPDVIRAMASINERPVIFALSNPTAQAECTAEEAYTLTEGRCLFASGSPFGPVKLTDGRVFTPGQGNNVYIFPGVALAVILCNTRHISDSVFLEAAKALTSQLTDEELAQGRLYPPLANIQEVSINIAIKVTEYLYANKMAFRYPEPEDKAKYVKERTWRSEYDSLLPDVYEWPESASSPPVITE
UniProt O14770: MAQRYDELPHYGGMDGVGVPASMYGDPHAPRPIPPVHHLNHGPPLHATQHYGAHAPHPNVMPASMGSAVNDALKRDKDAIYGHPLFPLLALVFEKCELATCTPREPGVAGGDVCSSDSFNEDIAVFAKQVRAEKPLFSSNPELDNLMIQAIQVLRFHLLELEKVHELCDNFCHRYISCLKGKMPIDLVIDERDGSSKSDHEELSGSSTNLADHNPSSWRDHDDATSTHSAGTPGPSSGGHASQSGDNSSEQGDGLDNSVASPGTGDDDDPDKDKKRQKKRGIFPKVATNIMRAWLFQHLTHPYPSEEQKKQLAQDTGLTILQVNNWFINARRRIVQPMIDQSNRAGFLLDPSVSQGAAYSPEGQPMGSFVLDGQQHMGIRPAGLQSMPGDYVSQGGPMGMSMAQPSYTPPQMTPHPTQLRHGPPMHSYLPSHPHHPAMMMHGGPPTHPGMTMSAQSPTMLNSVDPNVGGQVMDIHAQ
UniProt P10620: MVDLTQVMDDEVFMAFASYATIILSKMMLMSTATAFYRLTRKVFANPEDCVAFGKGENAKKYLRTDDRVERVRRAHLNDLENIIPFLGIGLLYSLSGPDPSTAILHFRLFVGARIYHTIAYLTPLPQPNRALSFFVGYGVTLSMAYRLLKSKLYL
UniProt O95140: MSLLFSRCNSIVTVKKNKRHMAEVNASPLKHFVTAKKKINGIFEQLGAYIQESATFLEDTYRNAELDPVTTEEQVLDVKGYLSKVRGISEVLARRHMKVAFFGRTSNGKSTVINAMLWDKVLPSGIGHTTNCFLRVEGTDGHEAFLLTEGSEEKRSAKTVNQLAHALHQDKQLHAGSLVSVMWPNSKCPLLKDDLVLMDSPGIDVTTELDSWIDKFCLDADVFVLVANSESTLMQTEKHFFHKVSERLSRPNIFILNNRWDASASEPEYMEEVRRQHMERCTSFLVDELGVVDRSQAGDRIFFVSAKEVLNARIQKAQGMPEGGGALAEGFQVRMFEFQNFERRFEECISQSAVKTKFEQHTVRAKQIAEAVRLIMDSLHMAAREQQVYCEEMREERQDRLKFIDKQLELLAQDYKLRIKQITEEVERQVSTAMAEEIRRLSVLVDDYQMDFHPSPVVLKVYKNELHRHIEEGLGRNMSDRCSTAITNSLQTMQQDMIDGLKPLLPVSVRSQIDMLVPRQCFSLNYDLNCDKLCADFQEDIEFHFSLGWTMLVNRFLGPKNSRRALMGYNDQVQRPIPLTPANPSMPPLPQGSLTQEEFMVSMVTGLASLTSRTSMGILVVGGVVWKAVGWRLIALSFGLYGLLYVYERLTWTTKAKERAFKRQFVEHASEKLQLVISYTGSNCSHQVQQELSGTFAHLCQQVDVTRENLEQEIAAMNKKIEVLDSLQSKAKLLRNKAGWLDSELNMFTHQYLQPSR
UniProt Q07820, whole entry, looked up: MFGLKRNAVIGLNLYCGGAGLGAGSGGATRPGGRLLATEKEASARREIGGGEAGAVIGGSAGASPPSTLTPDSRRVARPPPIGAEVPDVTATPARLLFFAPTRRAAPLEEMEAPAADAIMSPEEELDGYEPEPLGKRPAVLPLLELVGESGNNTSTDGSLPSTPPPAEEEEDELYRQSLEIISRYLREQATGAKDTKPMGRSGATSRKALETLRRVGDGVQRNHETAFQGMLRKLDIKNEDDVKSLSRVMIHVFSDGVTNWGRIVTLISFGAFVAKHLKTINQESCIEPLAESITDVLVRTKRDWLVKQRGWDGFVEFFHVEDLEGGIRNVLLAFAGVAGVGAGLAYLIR
UniProt Q9Y4C4: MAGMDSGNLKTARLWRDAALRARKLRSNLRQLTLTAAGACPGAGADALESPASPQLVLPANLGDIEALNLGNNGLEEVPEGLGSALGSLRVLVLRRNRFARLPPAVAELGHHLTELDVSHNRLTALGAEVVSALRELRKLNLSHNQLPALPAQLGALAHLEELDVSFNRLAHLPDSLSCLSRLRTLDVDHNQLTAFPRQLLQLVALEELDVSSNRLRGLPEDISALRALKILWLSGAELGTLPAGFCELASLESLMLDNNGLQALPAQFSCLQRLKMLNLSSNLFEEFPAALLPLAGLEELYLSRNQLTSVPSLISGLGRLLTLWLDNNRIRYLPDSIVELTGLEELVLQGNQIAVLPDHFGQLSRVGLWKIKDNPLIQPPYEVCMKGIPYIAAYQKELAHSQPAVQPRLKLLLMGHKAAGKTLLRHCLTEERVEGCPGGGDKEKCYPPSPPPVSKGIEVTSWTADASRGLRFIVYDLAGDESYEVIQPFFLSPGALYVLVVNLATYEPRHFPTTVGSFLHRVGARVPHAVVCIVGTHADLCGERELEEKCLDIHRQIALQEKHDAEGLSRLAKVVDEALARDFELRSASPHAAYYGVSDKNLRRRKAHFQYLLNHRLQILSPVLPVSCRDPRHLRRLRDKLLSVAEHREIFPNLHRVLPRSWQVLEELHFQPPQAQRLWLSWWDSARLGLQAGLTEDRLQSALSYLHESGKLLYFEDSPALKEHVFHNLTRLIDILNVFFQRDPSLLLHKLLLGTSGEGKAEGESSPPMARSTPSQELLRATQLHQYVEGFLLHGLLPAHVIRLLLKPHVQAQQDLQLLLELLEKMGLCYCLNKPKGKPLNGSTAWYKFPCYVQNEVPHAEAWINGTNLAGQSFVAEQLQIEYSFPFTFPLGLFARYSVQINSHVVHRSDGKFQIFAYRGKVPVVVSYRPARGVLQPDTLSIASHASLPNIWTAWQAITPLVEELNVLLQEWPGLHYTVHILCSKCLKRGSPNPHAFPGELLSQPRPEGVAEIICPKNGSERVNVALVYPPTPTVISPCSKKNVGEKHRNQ
UniProt Q12866: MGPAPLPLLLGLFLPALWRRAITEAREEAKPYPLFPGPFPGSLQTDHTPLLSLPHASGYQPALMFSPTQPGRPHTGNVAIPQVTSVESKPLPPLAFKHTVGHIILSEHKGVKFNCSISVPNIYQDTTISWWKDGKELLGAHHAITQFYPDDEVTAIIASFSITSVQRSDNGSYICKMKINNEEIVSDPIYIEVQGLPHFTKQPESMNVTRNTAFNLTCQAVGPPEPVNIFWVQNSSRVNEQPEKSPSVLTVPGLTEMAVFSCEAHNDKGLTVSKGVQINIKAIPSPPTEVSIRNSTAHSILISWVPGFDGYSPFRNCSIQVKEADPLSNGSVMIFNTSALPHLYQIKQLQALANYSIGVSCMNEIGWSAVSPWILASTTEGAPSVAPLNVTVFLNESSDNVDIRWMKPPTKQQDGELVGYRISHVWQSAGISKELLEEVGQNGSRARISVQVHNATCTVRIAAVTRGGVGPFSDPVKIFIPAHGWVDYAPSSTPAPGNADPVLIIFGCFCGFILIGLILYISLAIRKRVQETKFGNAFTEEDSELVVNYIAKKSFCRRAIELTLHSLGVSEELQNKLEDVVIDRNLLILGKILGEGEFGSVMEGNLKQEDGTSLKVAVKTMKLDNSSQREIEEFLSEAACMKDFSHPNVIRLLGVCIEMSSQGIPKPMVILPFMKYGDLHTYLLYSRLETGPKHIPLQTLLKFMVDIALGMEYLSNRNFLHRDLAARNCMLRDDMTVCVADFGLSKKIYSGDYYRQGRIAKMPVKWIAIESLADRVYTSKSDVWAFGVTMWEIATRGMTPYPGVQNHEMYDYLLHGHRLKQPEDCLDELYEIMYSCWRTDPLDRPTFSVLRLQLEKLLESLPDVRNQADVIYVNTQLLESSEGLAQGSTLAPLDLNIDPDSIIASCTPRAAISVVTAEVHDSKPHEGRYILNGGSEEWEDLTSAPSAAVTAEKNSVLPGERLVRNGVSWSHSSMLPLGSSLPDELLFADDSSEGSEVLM
UniProt Q5TF39: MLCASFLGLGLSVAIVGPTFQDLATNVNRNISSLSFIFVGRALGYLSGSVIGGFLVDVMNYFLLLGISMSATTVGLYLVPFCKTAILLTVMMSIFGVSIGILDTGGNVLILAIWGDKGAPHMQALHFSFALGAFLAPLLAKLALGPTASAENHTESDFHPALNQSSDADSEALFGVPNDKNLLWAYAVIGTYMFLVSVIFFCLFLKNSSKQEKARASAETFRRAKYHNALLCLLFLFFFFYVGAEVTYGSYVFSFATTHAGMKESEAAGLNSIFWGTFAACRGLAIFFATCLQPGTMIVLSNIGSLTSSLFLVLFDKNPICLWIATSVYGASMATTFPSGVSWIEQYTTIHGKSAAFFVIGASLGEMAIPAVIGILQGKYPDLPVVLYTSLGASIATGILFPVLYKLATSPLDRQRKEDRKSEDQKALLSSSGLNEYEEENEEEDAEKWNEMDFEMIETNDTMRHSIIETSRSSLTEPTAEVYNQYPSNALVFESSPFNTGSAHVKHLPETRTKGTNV
UniProt Q8NE86: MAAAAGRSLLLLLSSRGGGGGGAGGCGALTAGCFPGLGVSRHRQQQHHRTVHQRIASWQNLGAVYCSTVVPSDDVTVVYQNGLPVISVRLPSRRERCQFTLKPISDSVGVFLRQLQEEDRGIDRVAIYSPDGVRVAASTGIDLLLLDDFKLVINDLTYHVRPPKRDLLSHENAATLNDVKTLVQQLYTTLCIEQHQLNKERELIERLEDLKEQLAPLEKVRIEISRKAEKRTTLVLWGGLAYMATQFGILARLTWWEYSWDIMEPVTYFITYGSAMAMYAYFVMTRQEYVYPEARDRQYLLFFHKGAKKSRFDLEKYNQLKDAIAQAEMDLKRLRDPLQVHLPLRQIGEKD
UniProt O43934: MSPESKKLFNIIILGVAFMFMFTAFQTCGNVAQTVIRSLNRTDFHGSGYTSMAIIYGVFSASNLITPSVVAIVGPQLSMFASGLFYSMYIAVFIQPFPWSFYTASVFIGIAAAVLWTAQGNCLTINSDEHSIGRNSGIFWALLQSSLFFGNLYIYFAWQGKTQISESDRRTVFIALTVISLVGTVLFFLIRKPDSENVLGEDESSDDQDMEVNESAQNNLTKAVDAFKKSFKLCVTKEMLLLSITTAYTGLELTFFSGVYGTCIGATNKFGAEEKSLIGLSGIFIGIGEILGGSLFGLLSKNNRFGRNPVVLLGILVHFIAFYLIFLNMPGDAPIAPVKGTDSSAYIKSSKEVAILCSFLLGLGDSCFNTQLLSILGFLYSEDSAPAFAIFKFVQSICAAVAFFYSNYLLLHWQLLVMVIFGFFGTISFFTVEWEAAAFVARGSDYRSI
UniProt A4D2B0: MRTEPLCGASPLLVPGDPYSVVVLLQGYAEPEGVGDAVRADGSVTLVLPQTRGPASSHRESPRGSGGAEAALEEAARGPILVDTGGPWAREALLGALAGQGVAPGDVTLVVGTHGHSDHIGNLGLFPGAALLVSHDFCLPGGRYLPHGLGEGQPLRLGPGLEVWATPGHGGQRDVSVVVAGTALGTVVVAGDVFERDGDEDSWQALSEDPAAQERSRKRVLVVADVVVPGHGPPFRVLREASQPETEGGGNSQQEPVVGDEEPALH
UniProt Q9BTT4: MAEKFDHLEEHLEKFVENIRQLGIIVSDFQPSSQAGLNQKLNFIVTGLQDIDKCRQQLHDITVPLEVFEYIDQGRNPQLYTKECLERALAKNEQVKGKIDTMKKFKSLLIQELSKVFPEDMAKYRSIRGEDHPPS
UniProt Q6P1Q9: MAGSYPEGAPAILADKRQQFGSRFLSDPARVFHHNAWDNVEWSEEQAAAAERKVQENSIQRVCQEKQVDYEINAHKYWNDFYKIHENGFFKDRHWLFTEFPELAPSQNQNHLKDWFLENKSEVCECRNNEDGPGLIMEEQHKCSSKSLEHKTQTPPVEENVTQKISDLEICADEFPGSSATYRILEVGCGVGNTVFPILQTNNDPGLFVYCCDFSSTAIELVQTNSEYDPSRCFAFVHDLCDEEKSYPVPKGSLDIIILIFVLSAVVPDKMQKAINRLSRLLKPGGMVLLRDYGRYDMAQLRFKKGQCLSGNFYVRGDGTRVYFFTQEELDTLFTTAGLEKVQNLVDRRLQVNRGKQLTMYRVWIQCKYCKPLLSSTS

[2] = compound: C=CC(=O)N1CCC[C@@H](n2nc(-c3ccc(Oc4ccccc4)cc3)c3c(N)ncnc32)C1 [ibrutinib]
Method in brief: as §1

[3] = compound: CC(=O)c1cnc2ccc(-c3cc(Cl)c(O)c(Cl)c3)nc2c1N[C@H]1CC[C@H](CN(C)C)CC1
Method in brief: as §1

[4] = compound: CC(C)(C)Cn1c(N)nc2ccc(-c3[nH]c(C(C)(C)C)nc3-c3ccc(F)cc3)nc21 [ralimetinib]
Method in brief: as §1

[5] = compound: CC(C)(O)CC(=O)NCCn1ccc2ncnc(Nc3ccc(Oc4cccc(C(F)(F)F)c4)c(Cl)c3)c21
Method in brief: as §1

[6] = compound: CC(C)C1=C2N=C(C=C(N2N=C1)NCC3=CC=CC=C3)NCCCCCCN
Method in brief: as §1

[7] = compound: CC(C)C[C@@H](C=O)NC(=O)[C@H](CC(C)C)NC(=O)[C@H](CC(C)C)NC(=O)OCc1ccccc1
Method in brief: as §1

[8] = compound: CC(C)N(C[C@H]1O[C@@H](n2cnc3c(N)ncnc32)[C@H](O)[C@@H]1O)[C@H]1C[C@@H](CCc2nc3cc(C(C)(C)C)ccc3[nH]2)C1 [pinometostat]
Method in brief: as §1

[9] = compound: CC1=C(C2=C(C=C1)C(=O)C3=CC=CC=C3N2CCCN)C
Method in brief: as §1

[10] = compound: CC1=C(C(CC(=O)N1)C2=CC=C(C=C2)C(F)(F)F)C(=O)NC3=C(C=C4C(=C3)C=NN4)F
Method in brief: as §1

Measured: log2 fold change

ME2 (UniProt P23368)
inactive: [1] 0.009 | [2] -0.039 | [3] 0.213 | [4] -0.003 | [5] 0.036 | [6] 0.152 | [7] 0.025 | [8] -0.021 | [9] -0.042

MIB1 (UniProt Q86YT6)
inactive: [1] -0.254 | [2] -0.232 | [3] -0.094 | [4] 0.092 | [5] -0.097 | [6] -0.082 | [7] 0.156 | [8] 0.142 | [9] 0.076

MCCC2 (UniProt Q9HCC0)
inactive: [1] 0.046 | [2] 0.019 | [3] 0.047 | [4] -0.015 | [5] 0.027 | [6] 0.024 | [7] -0.04 | [8] -0.05 | [9] 0.003

MEIS2 (UniProt O14770)
inactive: [1] 0.138 | [2] -0.04 | [3] -0.01 | [4] 0.063 | [6] -0.149 | [7] -0.008 | [8] 0.087

MGST1 (UniProt P10620)
inactive: [1] 0.002 | [2] 0.033 | [3] 0.064 | [4] -0.01 | [5] -0.001 | [6] -0.004 | [7] 0.011 | [8] -0.074 | [9] 0.054

MED19 (UniProt A0JLT2)
inactive: [1] 0.164 | [2] 0.049 | [4] 0.135 | [5] 0.028 | [7] 0.095 | [8] -0.209 | [10] -0.062

MFN2 (UniProt O95140)
inactive: [1] -0.033 | [2] 0.03 | [3] -0.055 | [4] -0.014 | [5] 0.009 | [7] 0.032 | [8] -0.017 | [9] 0.049
active: [6] -0.479

MCL1 (UniProt Q07820)
inactive: [1] 0.052 | [2] 0.095 | [3] -0.036 | [4] 0.175 | [5] -0.054 | [6] -0.234 | [7] 0.295 | [8] -0.186 | [9] -0.117

MED6 (UniProt O75586)
inactive: [1] -0.165 | [2] -0.033 | [5] 0.278 | [6] -0.479 | [8] 0.087 | [10] 0.038

METTL6 (UniProt Q8TCB7)
inactive: [1] 0.048 | [2] -0.131 | [3] 0.004 | [5] -0.097 | [6] -0.079 | [8] -0.08 | [9] 0.113

MFHAS1 (UniProt Q9Y4C4)
inactive: [1] -0.103 | [2] 0.207 | [3] 0.074 | [4] 0.124 | [7] -0.072 | [8] -0.033 | [9] 0.135

MERTK (UniProt Q12866)
inactive: [1] 0.041 | [2] -0.027 | [3] 0.019 | [5] 0.036 | [6] -0.035 | [8] 0.017 | [10] -0.01 | [9] -0.092

MFSD4B (UniProt Q5TF39)
inactive: [1] 0.078 | [2] -0.004 | [3] 0.005 | [4] -0.064 | [5] 0.008 | [7] -0.014 | [8] -0.016 | [10] 0.002 | [9] -0.019

MEAK7 (UniProt Q6P9B6)
inactive: [1] 0.015 | [2] -0.041 | [3] -0.093 | [4] 0.078 | [5] -0.018 | [6] -0.2 | [7] 0.079 | [8] 0.037 | [9] 0.033

MCU (UniProt Q8NE86)
inactive: [1] 0.06 | [2] -0.026 | [3] -0.036 | [4] -0.042 | [5] -0.108 | [6] -0.122 | [7] -0.026 | [8] 0.03 | [9] 0.017

MFSD11 (UniProt O43934)
inactive: [1] 0.015 | [2] 0.006 | [3] -0.029 | [5] -0.008 | [8] -0.009 | [9] 0.095

MED13 (UniProt Q9UHV7)
inactive: [1] -0.011 | [2] 0.05 | [3] -0.256 | [4] -0.027 | [5] 0.059 | [7] 0.036 | [8] -0.043 | [10] 0.021 | [9] -0.201

MBLAC1 (UniProt A4D2B0)
inactive: [1] 0.371 | [2] -0.03 | [3] 0.001 | [4] -0.074 | [6] 0.126 | [7] -0.011 | [8] -0.163

MED10 (UniProt Q9BTT4)
inactive: [1] -0.172 | [3] -0.028 | [4] -0.059 | [5] -0.144 | [6] 0.078 | [7] 0.005 | [8] -0.025 | [10] 0.036 | [9] 0.202

MED16 (UniProt Q9Y2X0)
inactive: [1] 0 | [2] 0.003 | [4] 0.033 | [5] -0.029 | [6] -0.008 | [7] 0.064 | [8] 0.112 | [9] 0.17
active: [3] -0.358

MAST4 (UniProt O15021)
inactive: [1] -0.025 | [2] -0.138 | [3] -0.089 | [5] -0.091 | [6] -0.085 | [7] 0.002 | [8] -0.057 | [9] 0.268
active: [4] -0.479

MED1 (UniProt Q15648)
inactive: [1] -0.049 | [2] 0.002 | [4] 0.032 | [5] -0.008 | [6] -0.106 | [7] 0.033 | [8] 0.189 | [9] 0.027
active: [3] -0.28

METAP1D (UniProt Q6UB28)
inactive: [1] -0.122 | [2] 0.017 | [3] 0.084 | [4] 0.01 | [5] -0.032 | [6] 0.094 | [7] 0.044 | [8] -0.003 | [9] -0.024

MEPCE (UniProt Q7L2J0)
active: [9] -0.31
inactive: [1] 0.088 | [2] 0.023 | [3] 0.166 | [4] 0.108 | [5] 0.026 | [6] -0.16 | [7] 0 | [8] 0.098

MFGE8 (UniProt Q08431)
inactive: [1] -0.058 | [2] 0.016 | [3] 0.269 | [4] 0.152 | [5] 0.105 | [6] 0 | [7] 0.191 | [8] 0.12 | [9] -0.038

MCRIP2 (UniProt Q9BUT9)
inactive: [1] 0.079 | [2] -0.084 | [4] -0.037 | [5] -0.11 | [6] -0.062 | [7] 0.069 | [8] 0.008 | [9] 0.538

METTL25 (UniProt Q8N6Q8)
inactive: [1] 0.143 | [2] -0.256 | [3] 0.066 | [5] 0.324 | [6] 0.066 | [8] -0.035 | [10] 0.119

MELK (UniProt Q14680)
inactive: [1] 0.021 | [2] 0.032 | [5] -0.085 | [6] 0.092 | [8] 0.013 | [9] 0.011
active: [3] -0.84

MEF2C isoform 2 (UniProt Q06413)
inactive: [5] -0.141 | [9] 0.033

METTL2B (UniProt Q6P1Q9)
inactive: [1] -0.134 | [3] -0.073 | [4] 0.189 | [5] -0.091 | [7] 0.216 | [8] 0.291

MCTS2P, A0A3B3IRV3
inactive: [10] 0.021
